This passage reports binding results from paper PMC7541391.

By UniProt entry, the sequences of proteins in these tests, tags left out.
UniProt O15540: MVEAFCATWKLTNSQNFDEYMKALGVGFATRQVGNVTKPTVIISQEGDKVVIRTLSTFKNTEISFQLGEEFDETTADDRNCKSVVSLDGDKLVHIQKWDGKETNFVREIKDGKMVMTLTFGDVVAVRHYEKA

No constants are given. Whether binding was seen depends on the method and setting. Binding seen in cells or lysates may run through a third protein. Here binding means that the protein was enriched with, or labelled near, the bait; the list need not be complete. For some assays here: No binding means not detected with the bait.

The target of experiment [1] is FLAG-human FABP7mut (human). Nature of the experiment: affinity purification with mass spectrometry; lysate of HEK293T cells overexpressing FLAG-tagged FABP7 (wt or mut), pre-cleared with Protein A Sepharose, anti-FLAG magnetic beads at 4 °C overnight, elution with FLAG peptide, SDS-PAGE, silver-stained bands, LC-MS/MS.
The target in experiment [2] is FLAG-human FABP7wt (human) (UniProt O15540). The experiment is described as above.

B1: Serpin B4 (protein, UniProt P48594 1-390)
chain: MNSLSEANTKFMFDLFQQFRKSKENNIFYSPISITSALGMVLLGAKDNTAQQISKVLHFDQVTENTTEKAATYHVDRSGNVHHQFQKLLTEFNKSTDAYELKIANKLFGEKTYQFLQEYLDAIKKFYQTSVESTDFANAPEESRKKINSWVESQTNEKIKNLFPDGTIGNDTTLVLVNAIYFKGQWENKFKKENTKEEKFWPNKNTYKSVQMMRQYNSFNFALLEDVQAKVLEIPYKGKDLSMIVLLPNEIDGLQKLEEKLTAEKLMEWTSLQNMRETCVDLHLPRFKMEESYDLKDTLRTMGMVNIFNGDADLSGMTWSHGLSVSKVLHKAFVEVTEEGVEAAAATAVVVVELSSPSTNEEFCCNHPFLFFIRQNKTNSILFYGRFSSP
B1: the binding entry in experiment [1] is “no binding”; in experiment [2], “binds”.
